Data as given in patent publication US7468281B2, “Hollow fiber membrane sample preparation devices” (priority 2001, dated 2008).
Some of these results come from one statement about several compounds together.

Test: LPME with different supported liquid membrane liquids, 96 well format device, HPLC analysis
Conditions: four membrane liquids; 0.1 M hydrochloric acid acceptor

CN(C)CCC=C1c2ccccc2COc2ccccc21 [doxepin]
Enrichments: 100 to 200 fold

C=C[C@H]1C[N@@]2CC[C@H]1C[C@@H]2[C@@H](O)c1ccnc2ccc(OC)cc12 [quinidine]
Enrichments: 100 to 200 fold
